Earlier results on one molecule are cited in patent publication US11912664B2, “Determining small molecule-protein and protein-protein interactions” (President and Fellows of Harvard College, priority 2017, dated 2024).

For the series the following is noted: in vivo; cited from earlier work.

On to `COc1ccc2cc([C@H](C)C(=O)O)ccc2c1` [naproxen (1), naproxen], for which the blood plasma concentration is > 250 µM.
